{
  "source": "patent US7199115B2",
  "about": "“17α-fluorosteroids, pharmaceutical compositions containing 17α-fluorosteroids and a method of making them” (Schering AG, priority 2004, dated 2007)",
  "molecular_target": "T1, Progesterone Receptor (Oryctolagus cuniculus, UniProt P06186)",
  "T1 construct": "Biological material: Uterus cytosol, rabbit, pressed; from tissue; host or cells: rabbit uterus cytosol",
  "T1 sequence (P06186 1-930)": "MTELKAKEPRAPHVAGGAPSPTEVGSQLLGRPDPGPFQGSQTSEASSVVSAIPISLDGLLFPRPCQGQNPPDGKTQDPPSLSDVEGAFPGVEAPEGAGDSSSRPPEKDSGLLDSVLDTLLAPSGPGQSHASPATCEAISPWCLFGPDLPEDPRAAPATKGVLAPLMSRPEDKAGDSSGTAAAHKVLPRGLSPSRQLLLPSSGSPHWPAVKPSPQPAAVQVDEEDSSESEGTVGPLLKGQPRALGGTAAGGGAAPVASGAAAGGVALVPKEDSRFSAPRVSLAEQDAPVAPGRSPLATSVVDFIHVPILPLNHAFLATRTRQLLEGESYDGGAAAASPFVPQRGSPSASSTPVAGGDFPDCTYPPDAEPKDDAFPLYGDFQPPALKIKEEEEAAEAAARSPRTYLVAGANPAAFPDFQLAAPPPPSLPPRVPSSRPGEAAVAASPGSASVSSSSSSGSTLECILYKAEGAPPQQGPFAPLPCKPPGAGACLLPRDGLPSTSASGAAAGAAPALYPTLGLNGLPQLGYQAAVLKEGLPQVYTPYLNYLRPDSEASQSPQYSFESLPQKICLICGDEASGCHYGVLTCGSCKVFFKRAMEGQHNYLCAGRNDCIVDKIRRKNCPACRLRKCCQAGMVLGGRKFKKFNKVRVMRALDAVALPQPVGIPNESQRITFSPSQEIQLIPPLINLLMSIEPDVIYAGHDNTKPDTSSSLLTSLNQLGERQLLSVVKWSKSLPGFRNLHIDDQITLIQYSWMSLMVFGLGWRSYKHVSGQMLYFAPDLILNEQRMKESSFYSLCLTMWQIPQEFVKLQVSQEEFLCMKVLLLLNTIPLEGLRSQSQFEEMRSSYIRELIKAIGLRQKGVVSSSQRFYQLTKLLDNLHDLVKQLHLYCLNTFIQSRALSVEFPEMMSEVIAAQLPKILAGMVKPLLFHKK",
  "assay": "Binding to progesterone receptor, uterus cytosol, tracer 3H-ORG 2058",
  "conditions": "rabbit uterus cytosol, 0–4° C., 18 h, Progesterone=100%",
  "description": "Binding of Compound I to Progesterone Receptor",
  "note": "At least one compound was matched to its structure with a doubt left.",
  "data": [
    {"smiles": "C[C@]12CCC3C4CCC(=O)C=C4CCC3C1CC[C@]2(F)/C=N/O", "note": "(stereo partly drawn) [Compound 7, (E)-17α-fluoro-3-oxo-estra-4-en-17β-carbaldehyde oxime]", "values": [
      {"measurement": "Relative Binding affinity RBA", "value": "131±9", "unit": "%"}
    ]}
  ]
}
